PubChem BioAssay AID1259405 – NCATS | 2018

- Screen: 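Silenced genes that increase secreted GFP made by CHO cells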 (primary screen)
- Cells: Chinese hamster CHO-K1 ovary cells with stable secreted eGFP expression
- Reagent: single siRNA against mouse genes, 0.8 pmol siRNA per well (2 µl of 400 nM stock)
- Timing: 3 days
- Measurement: 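Per-well intracellular GFP measured by laser scanning cytometry, plus viability from ATP luminescence, each relative to plate median of non-targeting control wells, in %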
- Reading the numbers: GFP, % of control: higher = more GFP per well, higher productivity; viability (ATP), % of control: higher = more viable cells (more ATP)
- Hit rule: 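a knock-down is called active if GFP reaches 120% or more of non-targeting control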
The deposit covers about 50,000 reagents; below is an unselected part. About 4,000 of all reagents (8%) were called active. 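Mouse siRNA library applied to hamster cells; one well for each siRNA.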 The numbers tell different reagents against one gene apart.

| Target gene | siRNA no. | GFP, % of control | viability (ATP), % of control | outcome |
| --- | --- | --- | --- | --- |
| Or5p80 (GeneID 258769) | 1 | 135 | 74 | active |
| Or5p80 (GeneID 258769) | 2 | 87.9 | 83.1 | inactive |
| Or5p80 (GeneID 258769) | 3 | 78.7 | 85.9 | inactive |
| Mrpl51 (GeneID 66493) | 1 | 76.4 | 68.4 | inactive |
| Mrpl51 (GeneID 66493) | 2 | 83.5 | 43.4 | inactive |
| Mrpl51 (GeneID 66493) | 3 | 65.6 | 63.8 | inactive |
| Dcc (GeneID 13176) | 1 | 70.5 | 69.2 | inactive |
| Dcc (GeneID 13176) | 2 | 94.7 | 83 | inactive |
| Cxcl10 (GeneID 15945) | 1 | 39 | 24.8 | inactive |
| Cxcl10 (GeneID 15945) | 2 | 41.5 | 55.5 | inactive |
| Cxcl10 (GeneID 15945) | 3 | 79.6 | 72.9 | inactive |
| Fhl5 (GeneID 57756) | 1 | 60.8 | 64.3 | inactive |
| Fhl5 (GeneID 57756) | 2 | 111 | 80.4 | inactive |
| Cish (GeneID 12700) | 1 | 78.1 | 89 | inactive |
| Cish (GeneID 12700) | 2 | 71.2 | 95.5 | inactive |
| Cish (GeneID 12700) | 3 | 98.4 | 125 | inactive |
| Maf1 (GeneID 68877) | 1 | 71.3 | 35.8 | inactive |
| Maf1 (GeneID 68877) | 2 | 186 | 91 | active |
| Maf1 (GeneID 68877) | 3 | 88.1 | 82.1 | inactive |
| Brinp3 (GeneID 215378) | 1 | 95.8 | 62.6 | inactive |
| Brinp3 (GeneID 215378) | 2 | 92.6 | 91.3 | inactive |
| Brinp3 (GeneID 215378) | 3 | 78.8 | 82.9 | inactive |
| Spinkl (GeneID 77424) | 1 | 46.3 | 58.6 | inactive |
| Spinkl (GeneID 77424) | 2 | 150 | 100 | active |
| Spinkl (GeneID 77424) | 3 | 74.5 | 83.4 | inactive |
| Srpx (GeneID 51795) | 1 | 108 | 91.2 | inactive |
| Srpx (GeneID 51795) | 2 | 150 | 129 | active |
| Srpx (GeneID 51795) | 3 | 119 | 96.9 | inactive |
| Amacr (GeneID 17117) | 1 | 105 | 90.5 | inactive |
| Amacr (GeneID 17117) | 2 | 40.8 | 56.5 | inactive |
| Amacr (GeneID 17117) | 3 | 61.2 | 77.9 | inactive |
| Or52n20 (GeneID 259052) | 1 | 103 | 97.4 | inactive |
| Or52n20 (GeneID 259052) | 2 | 76.1 | 60.6 | inactive |
| Or52n20 (GeneID 259052) | 3 | 61.1 | 101 | inactive |
| Ugdh (GeneID 22235) | 1 | 67.1 | 97.6 | inactive |
| Ugdh (GeneID 22235) | 2 | 59.2 | 79.8 | inactive |
| Ugdh (GeneID 22235) | 3 | 73.2 | 87.5 | inactive |
| Tmem201 (GeneID 230917) | 1 | 46.8 | 72.8 | inactive |
| Tmem201 (GeneID 230917) | 2 | 54.7 | 86 | inactive |
| Tmem201 (GeneID 230917) | 3 | 27.9 | 22 | inactive |
| Nacc1 (GeneID 66830) | 1 | 22.6 | 22.5 | inactive |
| Nacc1 (GeneID 66830) | 2 | 61.8 | 67 | inactive |
| Nacc1 (GeneID 66830) | 3 | 78 | 94.2 | inactive |
| Defb22 (GeneID 442835) | 1 | 86.7 | 57.3 | inactive |
| Defb22 (GeneID 442835) | 2 | 127 | 107 | active |
| Defb22 (GeneID 442835) | 3 | 80.8 | 83.7 | inactive |
| Il7 (GeneID 16196) | 1 | 76.5 | 116 | inactive |
| Il7 (GeneID 16196) | 2 | 74.4 | 92.4 | inactive |
| Ces1f (GeneID 234564) | 1 | 65.8 | 69.1 | inactive |
| Ces1f (GeneID 234564) | 2 | 70.2 | 81.7 | inactive |
| Ces1f (GeneID 234564) | 3 | 74.7 | 62 | inactive |
| Rps24 (GeneID 20088) | 1 | 27.5 | 22.7 | inactive |
| Rps24 (GeneID 20088) | 2 | 47.8 | 28.7 | inactive |
| Rps24 (GeneID 20088) | 3 | 37.2 | 22.2 | inactive |
| St6galnac4 (GeneID 20448) | 1 | 88.5 | 68.6 | inactive |
| St6galnac4 (GeneID 20448) | 2 | 59.2 | 81.4 | inactive |
| St6galnac4 (GeneID 20448) | 3 | 61.7 | 94.1 | inactive |
| Ggact (GeneID 223267) | 1 | 48.4 | 76 | inactive |
| Ggact (GeneID 223267) | 2 | 54.3 | 53.8 | inactive |
| Ggact (GeneID 223267) | 3 | 122 | 115 | active |
| 2610524H06Rik (GeneID 330173) | 1 | 78.3 | 79 | inactive |
| 2610524H06Rik (GeneID 330173) | 2 | 71.4 | 74.6 | inactive |
| 2610524H06Rik (GeneID 330173) | 3 | 89.1 | 88.2 | inactive |
| Galp (GeneID 232836) | 1 | 98.1 | 110 | inactive |
| Galp (GeneID 232836) | 2 | 84.6 | 70.8 | inactive |
| Galp (GeneID 232836) | 3 | 74.7 | 79.8 | inactive |
| Gid4 (GeneID 66771) | 1 | 106 | 94.1 | inactive |
| Gid4 (GeneID 66771) | 2 | 84.9 | 87.9 | inactive |
| Gid4 (GeneID 66771) | 3 | 115 | 114 | inactive |
| Atp5mk (GeneID 66477) | 1 | 43.2 | 46.4 | inactive |
| Atp5mk (GeneID 66477) | 2 | 40.5 | 37.1 | inactive |
| Atp5mk (GeneID 66477) | 3 | 74.7 | 84.3 | inactive |

Continued, starting with the last 14 of the part before.
| Target gene | siRNA no. | GFP, % of control | viability (ATP), % of control | outcome |
| --- | --- | --- | --- | --- |
| Ggact (GeneID 223267) | 2 | 54.3 | 53.8 | inactive |
| Ggact (GeneID 223267) | 3 | 122 | 115 | active |
| 2610524H06Rik (GeneID 330173) | 1 | 78.3 | 79 | inactive |
| 2610524H06Rik (GeneID 330173) | 2 | 71.4 | 74.6 | inactive |
| 2610524H06Rik (GeneID 330173) | 3 | 89.1 | 88.2 | inactive |
| Galp (GeneID 232836) | 1 | 98.1 | 110 | inactive |
| Galp (GeneID 232836) | 2 | 84.6 | 70.8 | inactive |
| Galp (GeneID 232836) | 3 | 74.7 | 79.8 | inactive |
| Gid4 (GeneID 66771) | 1 | 106 | 94.1 | inactive |
| Gid4 (GeneID 66771) | 2 | 84.9 | 87.9 | inactive |
| Gid4 (GeneID 66771) | 3 | 115 | 114 | inactive |
| Atp5mk (GeneID 66477) | 1 | 43.2 | 46.4 | inactive |
| Atp5mk (GeneID 66477) | 2 | 40.5 | 37.1 | inactive |
| Atp5mk (GeneID 66477) | 3 | 74.7 | 84.3 | inactive |
| Erich3 (GeneID 209601) | 1 | 54.4 | 48.6 | inactive |
| Erich3 (GeneID 209601) | 2 | 68.1 | 83.1 | inactive |
| Erich3 (GeneID 209601) | 3 | 81.7 | 88.8 | inactive |
| Abl2 (GeneID 11352) | 1 | 106 | 79.2 | inactive |
| Abl2 (GeneID 11352) | 2 | 109 | 78.6 | inactive |
| Abl2 (GeneID 11352) | 3 | 69.9 | 70.3 | inactive |
| Or2r3 (GeneID 258989) | 1 | 49.8 | 48.7 | inactive |
| Or2r3 (GeneID 258989) | 2 | 89.7 | 86.5 | inactive |
| Or2r3 (GeneID 258989) | 3 | 34.9 | 28.8 | inactive |
| Rbp1 (GeneID 19659) | 1 | 111 | 110 | inactive |
| Rbp1 (GeneID 19659) | 2 | 149 | 150 | active |
| Rbp1 (GeneID 19659) | 3 | 40.4 | 70 | inactive |
| Tafazzin (GeneID 66826) | 1 | 99.3 | 91.9 | inactive |
| Tafazzin (GeneID 66826) | 2 | 68.5 | 89.2 | inactive |
| Tafazzin (GeneID 66826) | 3 | 132 | 112 | active |
| Stra6l (GeneID 74152) | 1 | 68.9 | 86.2 | inactive |
| Stra6l (GeneID 74152) | 2 | 82 | 92.8 | inactive |
| Stra6l (GeneID 74152) | 3 | 82.7 | 37.3 | inactive |
| Cstdc1 (GeneID 78609) | 1 | 63.7 | 50.2 | inactive |
| Cstdc1 (GeneID 78609) | 2 | 98 | 78.2 | inactive |
| Cstdc1 (GeneID 78609) | 3 | 82.5 | 100 | inactive |
| Pdcd11 (GeneID 18572) | 1 | 125 | 79.8 | active |
| Pdcd11 (GeneID 18572) | 2 | 81.8 | 85.8 | inactive |
| Pdcd11 (GeneID 18572) | 3 | 88 | 102 | inactive |
| Dsc2 (GeneID 13506) | 1 | 72.1 | 69.1 | inactive |
| Dsc2 (GeneID 13506) | 2 | 94.9 | 76.3 | inactive |
| Dsc2 (GeneID 13506) | 3 | 83.6 | 81.8 | inactive |
| Armc5 (GeneID 233912) | 1 | 49.5 | 58.3 | inactive |
| Armc5 (GeneID 233912) | 2 | 58.7 | 75.5 | inactive |
| Armc5 (GeneID 233912) | 3 | 93 | 75.6 | inactive |
| Zc3h4 (GeneID 330474) | 1 | 59.1 | 91.8 | inactive |
| Zc3h4 (GeneID 330474) | 2 | 89.3 | 107 | inactive |
| Zc3h4 (GeneID 330474) | 3 | 161 | 114 | active |
| Mylk (GeneID 107589) | 1 | 73.8 | 71.4 | inactive |
| Mylk (GeneID 107589) | 2 | 61.2 | 59.1 | inactive |
| Mylk (GeneID 107589) | 3 | 63.5 | 61.1 | inactive |
